From paper PMC5241739, “Structure of the Toll/Interleukin-1 Receptor (TIR) Domain of the B-cell Adaptor That Links Phosphoinositide Metabolism with the Negative Regulation of the Toll-like Receptor (TLR) Signalosome*^([image sbox.jpg])” (The Journal of Biological Chemistry, 2016) come the findings set out here.

Results are given in words; binding and its absence hold for the method and conditions named. Binding calls can cover weak binding; strength is not graded here.

The assay addresses T1, BCAP-TDA, the first 434 amino acids of human BCAP (human) (UniProt Q6ZUJ8).
T1 sequence: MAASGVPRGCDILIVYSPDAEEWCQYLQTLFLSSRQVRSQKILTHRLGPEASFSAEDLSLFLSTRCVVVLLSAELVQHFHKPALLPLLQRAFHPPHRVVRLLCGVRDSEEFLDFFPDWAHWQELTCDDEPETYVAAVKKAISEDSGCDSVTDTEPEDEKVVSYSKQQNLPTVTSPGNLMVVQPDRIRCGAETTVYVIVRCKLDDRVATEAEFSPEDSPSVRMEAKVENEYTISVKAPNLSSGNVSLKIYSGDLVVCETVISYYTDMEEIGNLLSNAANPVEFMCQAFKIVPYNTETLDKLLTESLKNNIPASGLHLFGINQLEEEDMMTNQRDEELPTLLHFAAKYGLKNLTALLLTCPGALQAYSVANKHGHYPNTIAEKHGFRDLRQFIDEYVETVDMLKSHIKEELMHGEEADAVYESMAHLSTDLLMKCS
Kind of assay: two-hybrid; Matchmaker system; bait GAL4-DBD in AH109 mated with prey GAL4-AD in Y187; growth on SD/−Leu/−Trp/−His/−Ade + Xα-Gal + 5 mM 3-AT.

Consider “regulatory p85 subunit of PI3K (yeast two-hybrid prey)”, for which the binding result is on record as “binds”.
